Experimental findings from patent publication US20040259165A1 (published 2004) are described below.

For this assay, the target named is Polyhistidine-tagged DsRed K83R (Discosoma species). In words: SDS-PAGE without heating (200 mM DTT).

No constants are given. Whether binding was seen depends on the method and setting. Some entries that bind do so weakly or less than the wild type. Tags and fused reporters may be left off the sequences shown.

B1: Polyhistidine-tagged DsRed K83R (protein)
chain: MRGSHHHHHHGMASMTGGQQMGRDLYDDDDKDPMRSSKNVIKEFMRFKVRMEGTVNGHEFEIEGEGEGRPYEGHNTVKLKVTKGGPLPFAWDILSPQFQYGSKVYVKHPADIPDYRKLSFPEGFKWERVMNFEDGGVVTVTQDSSLQDGCFIYKVKFIGVNFPSDGPVMQKKTMGWEASTERLYPRDGVLKGEIHKALKLKDGGHYLVEFKSIYMAKKPVQLPGYYYVDSKLDITSHNEDYTIVEQYERTEGRHHLFL
In the case of B1, the binding result is recorded as “binds”.
